Source: article doi:10.1101/2024.10.20.619318
Read-outs that look alike come from different tables or passages of the source. These are yes or no findings as the source states them, for the method shown. Binding seen in cells or lysates may run through a third protein. Some results given as binding are weak or reduced against the parent protein; the word gives no strength. Where a sequence is shown, tags or fusion partners need not be part of it.

Sequences of proteins named here, by UniProt entry; tags and fusion partners are left off.
UniProt O95573: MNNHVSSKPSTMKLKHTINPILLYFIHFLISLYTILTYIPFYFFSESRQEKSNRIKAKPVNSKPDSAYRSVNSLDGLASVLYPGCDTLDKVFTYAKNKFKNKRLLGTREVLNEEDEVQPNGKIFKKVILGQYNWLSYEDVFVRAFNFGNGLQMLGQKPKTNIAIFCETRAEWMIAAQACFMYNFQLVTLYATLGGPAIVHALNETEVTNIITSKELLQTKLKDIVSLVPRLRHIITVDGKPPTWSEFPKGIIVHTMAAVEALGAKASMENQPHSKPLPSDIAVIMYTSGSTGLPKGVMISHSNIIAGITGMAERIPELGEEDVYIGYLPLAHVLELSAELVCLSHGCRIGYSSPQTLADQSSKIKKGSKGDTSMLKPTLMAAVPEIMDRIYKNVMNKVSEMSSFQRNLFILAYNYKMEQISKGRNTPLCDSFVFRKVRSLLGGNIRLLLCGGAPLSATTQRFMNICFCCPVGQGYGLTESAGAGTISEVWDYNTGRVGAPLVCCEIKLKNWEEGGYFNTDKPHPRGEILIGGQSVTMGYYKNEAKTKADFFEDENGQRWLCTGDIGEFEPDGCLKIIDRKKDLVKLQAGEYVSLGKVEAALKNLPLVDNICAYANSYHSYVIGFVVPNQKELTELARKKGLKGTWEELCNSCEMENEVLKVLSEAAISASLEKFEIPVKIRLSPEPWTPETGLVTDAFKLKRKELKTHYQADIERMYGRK

Tests used:
GFP-Sec14L6 (human) [1] = target: T1, GFP-Sec14L6 (human) (UniProt B5MCN3); assay: co-IP
T1 sequence: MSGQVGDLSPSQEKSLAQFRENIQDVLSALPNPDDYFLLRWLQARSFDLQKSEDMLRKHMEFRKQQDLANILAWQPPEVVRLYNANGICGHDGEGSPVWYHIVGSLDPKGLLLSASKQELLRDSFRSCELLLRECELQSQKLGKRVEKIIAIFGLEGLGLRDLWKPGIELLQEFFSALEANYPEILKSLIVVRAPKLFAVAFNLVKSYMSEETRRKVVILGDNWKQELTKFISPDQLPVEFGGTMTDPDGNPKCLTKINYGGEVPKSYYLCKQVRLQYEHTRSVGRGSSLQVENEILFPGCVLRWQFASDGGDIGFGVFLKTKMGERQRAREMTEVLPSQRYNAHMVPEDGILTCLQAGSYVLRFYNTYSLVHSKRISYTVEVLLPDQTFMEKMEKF

[2] = target: T2, Sec14L6-GFP-KI (human (endogenous in HeLa)) (UniProt B5MCN3); assay: co-IP
T2 sequence: T1 sequence

[3] = target: T3, GFP-Sec14L6 lacking a helix (residues 193-249) (human) (UniProt B5MCN3); assay: co-IP
T3 sequence: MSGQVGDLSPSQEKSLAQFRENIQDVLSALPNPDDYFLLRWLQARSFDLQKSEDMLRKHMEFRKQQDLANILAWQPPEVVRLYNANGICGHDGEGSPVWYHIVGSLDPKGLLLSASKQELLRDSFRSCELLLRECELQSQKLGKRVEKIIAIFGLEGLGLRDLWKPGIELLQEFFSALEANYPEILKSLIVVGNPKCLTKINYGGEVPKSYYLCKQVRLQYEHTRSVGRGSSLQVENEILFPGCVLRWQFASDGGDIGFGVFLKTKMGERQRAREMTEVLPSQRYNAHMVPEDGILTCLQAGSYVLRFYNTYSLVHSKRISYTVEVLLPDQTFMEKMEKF

[4] = target: T4, GFP-Sec14L6 lacking a sheet (residues 186-192) (human) (UniProt B5MCN3); assay: co-IP
T4 sequence: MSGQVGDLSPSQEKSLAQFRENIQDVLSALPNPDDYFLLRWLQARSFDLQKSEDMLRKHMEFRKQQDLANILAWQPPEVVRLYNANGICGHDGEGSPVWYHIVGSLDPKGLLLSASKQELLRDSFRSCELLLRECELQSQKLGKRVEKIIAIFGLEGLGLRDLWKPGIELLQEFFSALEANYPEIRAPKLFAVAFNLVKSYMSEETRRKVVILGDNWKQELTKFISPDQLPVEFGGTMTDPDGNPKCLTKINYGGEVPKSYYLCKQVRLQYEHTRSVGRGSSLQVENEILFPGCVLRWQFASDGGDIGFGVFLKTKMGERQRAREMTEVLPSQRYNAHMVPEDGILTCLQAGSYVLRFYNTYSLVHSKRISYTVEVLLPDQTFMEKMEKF

[5] = target: T5, GFP-Sec14L6 lacking a helix (residues 160-185) (human) (UniProt B5MCN3); assay: co-IP
T5 sequence: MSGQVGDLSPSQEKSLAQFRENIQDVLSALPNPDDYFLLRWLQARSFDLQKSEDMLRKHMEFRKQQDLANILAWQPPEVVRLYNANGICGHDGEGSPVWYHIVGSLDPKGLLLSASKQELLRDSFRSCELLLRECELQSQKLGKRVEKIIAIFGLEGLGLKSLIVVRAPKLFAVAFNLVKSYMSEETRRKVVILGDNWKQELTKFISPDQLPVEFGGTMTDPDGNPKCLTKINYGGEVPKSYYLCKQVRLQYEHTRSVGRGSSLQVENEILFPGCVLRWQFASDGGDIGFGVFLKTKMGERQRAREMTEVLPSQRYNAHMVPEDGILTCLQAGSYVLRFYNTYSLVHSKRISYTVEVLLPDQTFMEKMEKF

GFP-Sec14L6 (human) [6] = target: T1, GFP-Sec14L6 (human); assay: co-IP; remark: listed apart in the source
Flag-Sec14L6 (human) = Flag-Sec14L6 (human) (UniProt B5MCN3); assay: cross-linking

Question: With “PGRMC1-Halo (from UniProt O00264-1 1-195)” as the molecule, how does the binding (GFP-Sec14L6 (human) [1]) read?
Answer: binds

Question: Which results are given for “endogenous ACSL3 (from UniProt O95573 1-720)”?
Answer: binding [2]: binds; binding [3]: binds; binding (GFP-Sec14L6 (human) [1]): binds; binding [4]: binds; binding [5]: binds

Question: How did the binding [2] turn out when “endogenous PGRMC1 (from UniProt O00264-1 1-195)” was run?
Answer: binds

B1: GFP-Sec14L6 (protein, UniProt B5MCN3 1-397)
chain: T1 sequence
Question: For B1, which binding (GFP-Sec14L6 (human) [6]) is on record?
Answer: binds

B2: Flag-Sec14L6 (protein, UniProt B5MCN3 1-397)
chain: T1 sequence
Question: Which binding (Flag-Sec14L6 (human)) does the source give for B2 here?
Answer: binds
